# Laboratory results published in PubChem BioAssay AID1439 (NMMLSC, 2008).
# Sequences of proteins named here, by UniProt entry; tags and fusion partners are left off.
# UniProt P09471, whole entry, looked up: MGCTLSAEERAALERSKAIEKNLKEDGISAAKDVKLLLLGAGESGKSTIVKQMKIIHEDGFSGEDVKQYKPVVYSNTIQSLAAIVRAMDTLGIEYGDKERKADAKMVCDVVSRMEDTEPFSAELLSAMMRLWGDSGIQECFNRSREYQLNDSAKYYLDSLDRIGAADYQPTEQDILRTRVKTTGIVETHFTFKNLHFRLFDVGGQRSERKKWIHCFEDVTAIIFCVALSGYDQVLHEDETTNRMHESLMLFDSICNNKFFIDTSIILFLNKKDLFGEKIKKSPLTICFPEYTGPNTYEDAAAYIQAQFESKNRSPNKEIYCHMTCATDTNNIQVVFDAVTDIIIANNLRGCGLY
# In all, about 220,000 compounds went through this assay and about 770 (0.35%) were called active. The inconclusive results got no clear call from the source; some entries with a clear call stand among them for comparison. Rule as the data show it: active = binding response below about 49% or above about 150%; inconclusive = no clear call, values can overlap the other calls; inactive = in between.
# Target: Guanine nucleotide-binding protein G(o) subunit alpha (Homo sapiens) (UniProt P09471)
# Test: RGS7-Galphao binding modulators, primary screen, biochemical, multiplexed bead flow cytometry (AID 1439);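 also: fluorescent Galphao held in activated GDP-AlF4 state binding bead-coupled RGS7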
# Settings: at 10 µM, actives lie on both sides
row,SMILES,binding response (% of control)
1,Cc1ccc(-c2nn3cnnc3c3ccccc23)cc1C,inconclusive: 110%
2,O=c1cccccc1NN=C1CCCCCC1,inconclusive: 102%
3,Cc1cc(-c2nnnn2-c2ccc(C(F)(F)F)cc2)no1,inconclusive: 125%
4,O=C(N/N=C/c1ccco1)C1(O)c2ccccc2-c2ccccc21,inconclusive: 98.7%
5,COc1ccccc1OCCC(=O)O,inconclusive: 102%
6,CCCC(C)C(=O)Nc1ccc(S(=O)(=O)Nc2nccc(C)n2)cc1 (stereo unspecified),inactive: 105%
7,C/C(=N\NC(=O)CCc1c(C)n[nH]c1C)c1ccc([N+](=O)[O-])cc1,inconclusive: 120%
8,COCc1cc(=O)oc2cc(NS(=O)(=O)c3ccc(C)cc3)ccc12,inconclusive: 92.2%
9,N=C1C(c2ccccc2)=C(O)CN1c1cccc2ccccc12,inconclusive: 93.4%
10,C=CCc1ccc(OCCCOc2ccc(C(=O)O)cc2)c(OC)c1,inconclusive: 124%
11,Cc1cc(C(=O)CSc2nn3c(=O)c(C(C)(C)C)nnc3s2)c(C)n1C1CC1,inconclusive: 99.9%
12,COC(=O)Nc1cc(C)n(-c2ccccc2)n1,inconclusive: 109%
13,CC(=O)Nc1ccc(NC(=O)C(=O)N/N=C/c2cccnc2)cc1,inconclusive: 92.6%
14,CCC(C)NC(=O)C(=O)NCC1CCCN1CC (stereo unspecified),inactive: 103%
15,CCOc1c(Nc2cccc(Cl)c2)c(=O)c1=O,inconclusive: 177%
16,Cc1cc(C(=O)NNS(=O)(=O)c2ccc(C(C)(C)C)cc2)nn1C(C)(C)C,inconclusive: 76.7%
17,Cc1ccccc1-n1c(SCC(=O)NC(N)=O)nc2sc(-c3ccccc3)cc2c1=O,inactive: 78.9%
18,CN(C)S(=O)(=O)c1ccc(C(=O)Nc2nc3ccccc3[nH]2)cc1,inconclusive: 116%
19,Cn1c(=O)c2ncn(CC(=O)N/N=C/c3ccco3)c2n(C)c1=O,inactive: 98.5%
20,O=C(NCCO)c1ccc2c3n(nc2c1)-c1ccc(Cl)cc1CO3,inconclusive: 109%
21,Nc1nnn(CC(=O)N/N=C/c2ccccc2Cl)n1,inconclusive: 102%
22,CCCNC(=O)Nc1nccs1,inactive: 105%
23,CC(=O)N1CCN(c2nc(N)c(C#N)c(CC#N)c2C#N)CC1,inconclusive: 80.6%

# Compounds listed so far containing two or more sulfur atoms (2):
row,SMILES,binding response (% of control)
11,Cc1cc(C(=O)CSc2nn3c(=O)c(C(C)(C)C)nnc3s2)c(C)n1C1CC1,inconclusive: 99.9%
17,Cc1ccccc1-n1c(SCC(=O)NC(N)=O)nc2sc(-c3ccccc3)cc2c1=O,inactive: 78.9%

# (listing goes on)

row,SMILES,binding response (% of control)
1,C[C@H](NC(=O)OCc1ccccc1)c1nnc([C@H](Cc2ccccc2)NC(=O)OC(C)(C)C)o1,inconclusive: 125%
2,Cc1ccc(N2C(=O)c3cccc4c(N)ccc(c34)C2=O)c2cccnc12,inconclusive: 127%
3,CC1(OC(=O)CCc2ccccc2)C(=O)C=C2C=C(c3ccc(C#N)cc3)N(c3ccccc3)C=C2C1=O (stereo unspecified),inconclusive: 64%
4,CCC(=O)N(Cc1cc(=O)[nH]c2ccccc12)c1ccccc1,inconclusive: 260%
5,O=[N+]([O-])c1ccccc1NCCNS(=O)(=O)c1ccc(Cl)cc1,inactive: 101%
6,COc1ccc(OCC(O)Cn2c(=N)n(CCN3CCCCC3)c3ccccc32)cc1 (stereo unspecified),inactive: 102%
7,Nc1nc(CN2CCN(C(c3ccccc3)c3ccccc3)CC2)nc(Nc2ccccc2)n1,inconclusive: 108%
8,O=[N+]([O-])c1c(Nc2ccccn2)cc(Cl)c2nonc12,inconclusive: 94.8%
9,Cc1ccc(S(=O)(=O)Oc2ccccc2/C=N/Nc2ccc(C(=O)O)cc2)cc1,inconclusive: 105%
10,CC(C)CC(C)NC(=O)c1ccc(C(F)(F)F)cc1 (stereo unspecified),inconclusive: 147%
11,CCN(CC)CCC(=O)NN,inactive: 99.2%
12,COC(=O)c1ccc(C(=O)O)nc1,inconclusive: 91.8%
13,Cc1ccc(NC(=O)CN(C)Cc2cc(=O)n3ccsc3n2)cc1,inconclusive: 104%
14,Cc1ccc(N(CCC#N)C(=O)CCl)cc1C,inactive: 92.4%
15,CCN(C(=O)c1cc2c(=O)[nH]c3ccc(C)cc3c2s1)c1ccccc1F,inconclusive: 75.1%
16,COc1ccc(CCNC(=O)c2ccc3c(c2)SC2=NS(=O)(=O)CCN23)cc1,inconclusive: 138%
17,Nc1nc(NCC2CCCO2)nc(Nc2cccc(Cl)c2)c1[N+](=O)[O-] (stereo unspecified),inconclusive: 125%
18,Cc1ccc2sc(N(CCCN(C)C)C(=O)c3ccc(Br)s3)nc2c1C,inconclusive: 106%
19,CS(=O)(=O)Nc1ccc(C(=O)Nc2ccccc2Cl)cc1,inconclusive: 98.3%
20,NC(=O)CSc1nnnn1-c1ccccc1Cl,inconclusive: 124%
21,O=C(NCc1ccco1)c1csc2c1CCCC2,inconclusive: 94.2%
22,CC(C)(C)OC(=O)NCc1ccc(NC(=O)c2nc[nH]c2C(=O)N[C@@H](Cc2ccccc2)C(=O)OCc2ccccc2)cc1,inconclusive: 102%
23,CCn1c(=O)cc(OCC(=O)NCc2cccs2)c2ccccc21,inactive: 101%
